No constants are given. Whether binding was seen depends on the method and setting. Binding can be weak; no strength is given.
Target: αVβ6 integrin (human (endogenous in BT474 and HER2-18)) (UniProt P06756)
Assay: isolation of integrin adhesion complexes (IACs) with immunoblotting; IACs isolated from BT474 cells on LAP, FN and Coll-I after DTBP cross-linking and removal of cell bodies; immunoblot

Protein sequences, listed by entry. Tags and fused reporters are not part of them. Lines headed by an entry give the natural chain unless they say otherwise; changes in a name come on top.
UniProt P06756: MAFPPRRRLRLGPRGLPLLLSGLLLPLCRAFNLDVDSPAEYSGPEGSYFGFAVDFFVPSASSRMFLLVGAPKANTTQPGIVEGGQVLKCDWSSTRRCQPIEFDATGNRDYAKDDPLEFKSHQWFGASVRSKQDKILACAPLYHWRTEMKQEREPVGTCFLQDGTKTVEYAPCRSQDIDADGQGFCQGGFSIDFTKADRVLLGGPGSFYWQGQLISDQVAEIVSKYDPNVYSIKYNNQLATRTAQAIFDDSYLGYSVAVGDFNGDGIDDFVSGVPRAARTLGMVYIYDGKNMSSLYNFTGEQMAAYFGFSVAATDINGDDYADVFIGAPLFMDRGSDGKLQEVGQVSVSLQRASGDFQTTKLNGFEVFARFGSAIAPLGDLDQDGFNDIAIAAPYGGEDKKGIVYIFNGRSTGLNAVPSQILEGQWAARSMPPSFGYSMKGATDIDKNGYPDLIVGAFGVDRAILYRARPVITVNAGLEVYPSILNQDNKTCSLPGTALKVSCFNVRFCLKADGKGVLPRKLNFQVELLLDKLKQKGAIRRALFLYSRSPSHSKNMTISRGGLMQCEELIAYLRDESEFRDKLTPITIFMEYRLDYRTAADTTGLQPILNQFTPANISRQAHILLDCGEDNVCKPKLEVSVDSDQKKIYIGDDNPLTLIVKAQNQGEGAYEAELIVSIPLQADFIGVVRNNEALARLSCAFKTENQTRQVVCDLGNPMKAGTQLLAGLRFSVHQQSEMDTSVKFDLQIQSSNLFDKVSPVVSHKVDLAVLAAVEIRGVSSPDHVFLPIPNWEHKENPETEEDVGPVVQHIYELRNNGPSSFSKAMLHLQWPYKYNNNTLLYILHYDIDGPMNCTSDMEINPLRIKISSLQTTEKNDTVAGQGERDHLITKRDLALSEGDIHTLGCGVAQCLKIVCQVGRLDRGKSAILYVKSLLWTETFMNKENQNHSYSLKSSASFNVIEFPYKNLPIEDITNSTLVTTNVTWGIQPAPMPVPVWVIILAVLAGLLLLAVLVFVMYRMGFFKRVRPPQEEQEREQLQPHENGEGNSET

- binding: binds
Substance: vinculin (from UniProt P18206-2)
